Laboratory results reported in PubChem BioAssay AID1999 (Broad Institute, 2009).
The list shows a part of the results. Entries with a potency or affinity are not part of this list. The source made no clear call on entries shown without one.

Experiment: activators of PrP 5'UTR-driven reporter translation, dose response, luminescence (AID 1999)
Details: H4 cells, PrP 5'UTR luciferase reporter; at 12 µM (top of the series) unless noted

Row | Structure (SMILES) | activation
1 | O=C(Nc1nnc(-c2ccccc2F)s1)C1CCCO1 (centres undefined) | 79.5%
2 | O=C(c1cnn(-c2ccc(Cl)cc2)c1)c1ccccc1O | 58.3%
3 | Cc1ccsc1C(=O)Nc1ccc(OCc2ccccc2)cc1 | 55.6%
4 | CCCOc1cccc(-c2nc3ccccc3c(=O)o2)c1 | 96.2%
5 | Cc1ccc(-n2c(C)cc(C(=O)COC(=O)c3c(C)noc3C)c2C)cc1 | 52.4%
6 | Cc1nnc2n(c1=O)N=C(c1ccc(Cl)cc1)CS2 | 65%
7 | Cc1ccc2nc(C3CCCCC3)[nH]c2c1 | 52.6%
8 | Cc1ccc(OC(=O)c2cccc([N+](=O)[O-])c2)c(-n2nc3ccccc3n2)c1 | 83.7%
9 | C(=C\c1ccccc1)/C=N/Nc1nc2ccccc2s1 | 58.4%
10 | C=CCNC(=O)c1cc2c(=O)n3ccccc3nc2s1 | 29.1%
11 | COCCNC(=O)/C(C#N)=C/c1cc(C)n(C2CCCCC2)c1C | 29.7%
12 | Nc1nc(CSc2ncccn2)nc(Nc2ccccc2)n1 | 64.4%
13 | Clc1ccccc1-c1nc(-c2ccccc2)n[nH]1 | 125%
14 | CCCCSc1ncc(C(=O)OCC)c(N)n1 | 70.5%
15 | O=C(Cc1nc(=O)c2ccccc2s1)Nc1ccccc1 | 56.9%
16 | Cc1cccc(NC(=S)NNC(=O)c2csc(C(C)C)c2)c1 | 94%
17 | Cc1ccc(-n2ncc(Cl)c2C(=O)NC2CC2)cc1 | 98.4%
18 | CC(=O)c1cnc2cc(-c3ccc(C)cc3)nn2c1C | 69.7%
19 | N#Cc1c(-c2ccc(Cl)cc2)ccn2nc(C3CCCCC3)nc12 | 51.3%
20 | COc1ccc(C2C(=O)c3ccccc3C2=O)c(OC)c1 | 55.2%
21 | Cc1ccccc1/C=C1\CCCc2ccccc2C1=O | 65.8%
22 | Cc1ccc(Nc2nc(-c3ccncc3)cs2)cc1 | 137%
23 | Cc1ccc(-n2nc3c(n2)/C(=N/O)CC/C3=N\O)cc1 | 49.9%
24 | c1csc(C2=NNC(=NC3CCCCC3)SC2)c1 | 61.6%
25 | CCN1C(=S)SC(=O)C1=C1C=C(C)N(CCO)C(C)=C1 | 53.6%
26 | Nc1nc(Nc2ccccc2F)sc1C(=O)c1ccccc1 | 52.8%
27 | COc1ccc(-n2ncc3c(N4CCc5ccccc54)ncnc32)cc1 | -8.6%

A different layout for some results above.
Row	Structure (SMILES)	activation
3	Cc1ccsc1C(=O)Nc1ccc(OCc2ccccc2)cc1	55.6%
4	CCCOc1cccc(-c2nc3ccccc3c(=O)o2)c1	96.2%
5	Cc1ccc(-n2c(C)cc(C(=O)COC(=O)c3c(C)noc3C)c2C)cc1	52.4%
6	Cc1nnc2n(c1=O)N=C(c1ccc(Cl)cc1)CS2	65%
7	Cc1ccc2nc(C3CCCCC3)[nH]c2c1	52.6%

Later entries

Row | Structure (SMILES) | activation
28 | O=c1c2ccccc2nc(-c2ccco2)n1Cc1ccccc1 | 112%
29 | O=C(COC(=O)c1cccs1)c1ccc2c(c1)OCCO2 | 106%
30 | Clc1ccc2nc(CSCc3ccccc3)cn2c1 | 48.5%
31 | Nc1ccc2nc(-c3ccccn3)[nH]c2c1 | 43.1%
32 | CC1CCc2c(sc(NC(=O)c3nc4ncccn4n3)c2C#N)C1 (centres undefined) | 41.3% [at 6 µM]
33 | COc1ccc2c(c1OC)C(=O)OC2Nc1nc(-c2ccc(-c3ccccc3)cc2)cs1 (centres undefined) | 81.1%
34 | Cc1ccc(OCCn2cnc3ccccc3c2=O)c([N+](=O)[O-])c1 | 52.1%
35 | COC(=O)CSc1nc2cc3c(cc2cc1C#N)OCO3 | 49.9%
36 | CC(=O)/C(N=Nc1ccc2c(c1)OCO2)=C(\C)O | 79.7%
37 | Clc1ccc(-c2cnc(Oc3ccccc3)nc2)cc1 | 54.9%
38 | O=C(Nc1ccc2ccccc2n1)c1ccccc1Br | 40.7%
39 | c1ccc(N2CCN(c3nc4cc5c(cc4s3)OCO5)CC2)cc1 | 28.4%
40 | COc1cccc(COC(=O)Nc2ccccc2F)c1 | 82.3%
41 | Cc1c(C(=O)Nc2ccccn2)oc2ccccc12 | 106%
42 | Cc1nc2c3cnn(-c4ccc(C)c(C)c4)c3ncn2n1 | 33.4%
43 | COc1ccc(C2=NC(c3ccccc3)CO2)cc1 (centres undefined) | 66.8%
44 | Cc1cc(C)c(NN=c2c(=O)c3ccccc3c2=O)c(C)c1 | 68.3%
45 | O=C(N=C1SCC(=O)N1c1ccccc1Cl)c1ccco1 | 123%
46 | O=C(Nc1ccc(N2CCOCC2)c(Cl)c1)c1ccc(Br)o1 | 45%
47 | CCOC(=O)c1c(C)[nH]c(N=Nc2ccc(C)cc2)c1C | 60.3%
48 | O=C(Nc1ccccc1)c1cc2ccccc2c(=O)s1 | 68.9%
49 | C=CCn1c(C)nc2c(sc3nc4c(cc32)COC(C)(C)C4)c1=O | 38.2%
50 | c1ccc(-c2nnc(SCCC3OCCCO3)o2)cc1 | 33.3%
51 | COc1ccc2cc(C(=O)NCC3CCCO3)[nH]c2c1 (centres undefined) | 117%
52 | C=CCNc1ncnc2c1[nH]c1ccc(Cl)cc12 | 106%
53 | Cc1nc(-c2ccccc2)sc1-c1ccnn1C | 77.4%
54 | COc1ccc(Nc2ncnc3c2oc2ccccc23)cc1 | 60.7%

Row | Structure (SMILES) | activation
55 | COc1ccc(/C=C2\SC(=O)N(CCNC(=O)C3CC4C=CC3C4)C2=O)cc1 (centres undefined) | 61.9%
56 | Clc1nc(-c2ccccn2)nc2scc(-c3ccccc3)c12 | -10.1%
57 | O=C(Cc1ccccc1)NC(=S)Nc1ccc2oc(-c3ccccc3F)nc2c1 | 22.4%
58 | O=C(Nc1cc(-c2ccccc2)[nH]n1)c1ccccc1F | 44.7%
59 | CN(C)c1ccc(NC(=O)c2sc(SCC(=O)Nc3nccs3)nc2N)cc1 | 51.9%
60 | CCc1ccc(NC(=O)c2[nH]c(C)c(C(C)=O)c2C)cc1 | 69.1%
61 | CCSc1nn2c(=O)c3ccccc3nc2s1 | 39.2%
62 | CCC(=O)Nc1cccc(-c2nnc(SCC(=O)c3ccccc3)n2C)c1 | 66.2%
63 | Cc1ccc(N2CCN(C(=O)c3cn(CC4CCCCC4)nn3)C(C)C2)cc1 (centres undefined) | 64.7%
64 | Cc1c(C(=O)Nc2ccccc2[N+](=O)[O-])csc1-c1ccccc1 | 101% [at 6 µM]
65 | CC(C)(C)CC(=O)Nc1nnc(-c2cccs2)s1 | 43.4%
66 | Cc1cc(C(=O)CSc2nc3ccccc3o2)c(C)n1C1CC1 | 45.1%
67 | O=C(Nc1ncccc1O)c1ccc(Oc2ccccc2)cc1 | 49.8%
68 | c1ccc(OCCSc2nnnn2C2CCCCC2)cc1 | 62.6%
69 | Cc1ccc2c(c1)sc1nc(=O)n(-c3cccc(Cl)c3)c(=O)n12 | 64.3%
70 | Cc1cc(C)n2nc(Nc3ccccc3)cc2n1 | 58.5%
71 | COC(=O)c1cc(CSc2nc3ccccc3[nH]2)oc1C | 67.3%
72 | c1ccc2nc(-c3ccc(-n4ccnc4)cc3)ccc2c1 | 10.1%
73 | O=C(CN1C(=O)NC2(CCCCCC2)C1=O)c1ccc2c(c1)OCCO2 | 76.9%
74 | CC1CCC(=C(C#N)c2nc(-c3cc4ccccc4oc3=O)cs2)CC1 (centres undefined) | 71.7%
75 | Cc1ccc(C(=O)Nc2nc3ccccc3c(=O)s2)cc1 | 21.1%
76 | COC(=O)CCN1CCc2cc(N=Nc3ccc([N+](=O)[O-])cc3)ccc21 | 18.8%
77 | CCOC(=O)C(=O)N(Nc1ccc(C)cc1)c1ccc(C)cc1 | 77.2%
78 | CCc1ccc2oc(-c3cc(N=Cc4cccc(OC)c4O)ccc3O)nc2c1 | -5.6%
79 | Cc1nc2c(C(=O)N3CCCCC3)cnn2c(C)c1Cc1ccccc1F | 44.6%
